Test results published in article PMC12077180.
Results are given in words; binding and its absence hold for the method and conditions named. In cells and extracts the contact can be indirect. Some entries that bind do so weakly or less than the wild type.

By UniProt entry, the sequences of proteins in these tests, tags left out.
UniProt P53618: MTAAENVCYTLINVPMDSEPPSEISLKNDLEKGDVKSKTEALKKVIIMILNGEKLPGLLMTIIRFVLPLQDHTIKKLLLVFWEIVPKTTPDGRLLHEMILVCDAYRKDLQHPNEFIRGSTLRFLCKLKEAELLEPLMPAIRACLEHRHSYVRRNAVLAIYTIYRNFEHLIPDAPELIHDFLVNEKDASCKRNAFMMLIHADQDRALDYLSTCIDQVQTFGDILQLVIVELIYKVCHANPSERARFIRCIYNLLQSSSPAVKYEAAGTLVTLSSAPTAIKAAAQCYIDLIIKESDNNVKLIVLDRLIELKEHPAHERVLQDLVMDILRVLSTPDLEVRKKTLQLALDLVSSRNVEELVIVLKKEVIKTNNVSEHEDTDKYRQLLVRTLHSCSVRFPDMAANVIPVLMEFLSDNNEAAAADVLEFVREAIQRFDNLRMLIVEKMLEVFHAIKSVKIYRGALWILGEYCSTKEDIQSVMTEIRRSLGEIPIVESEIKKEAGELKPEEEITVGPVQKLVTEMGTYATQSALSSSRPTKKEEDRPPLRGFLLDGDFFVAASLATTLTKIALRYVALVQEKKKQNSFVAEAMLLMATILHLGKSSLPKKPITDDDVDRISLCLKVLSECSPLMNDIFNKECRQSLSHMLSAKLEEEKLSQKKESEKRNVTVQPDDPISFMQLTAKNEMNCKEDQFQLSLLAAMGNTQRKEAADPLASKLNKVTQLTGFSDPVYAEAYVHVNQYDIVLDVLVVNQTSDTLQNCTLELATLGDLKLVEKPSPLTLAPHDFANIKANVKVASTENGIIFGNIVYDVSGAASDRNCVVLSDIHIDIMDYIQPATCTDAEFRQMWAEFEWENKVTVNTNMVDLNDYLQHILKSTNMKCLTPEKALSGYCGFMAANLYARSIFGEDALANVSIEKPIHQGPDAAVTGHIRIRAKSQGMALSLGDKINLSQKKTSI
UniProt P20339: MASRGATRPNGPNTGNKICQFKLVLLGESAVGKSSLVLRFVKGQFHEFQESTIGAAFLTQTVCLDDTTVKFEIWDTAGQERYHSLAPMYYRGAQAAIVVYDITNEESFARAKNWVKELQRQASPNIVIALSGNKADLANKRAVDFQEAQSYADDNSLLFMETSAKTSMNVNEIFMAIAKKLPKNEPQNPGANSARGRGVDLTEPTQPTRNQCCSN

Tests used:
[1] = target: COPB1 (COP-I coat complex subunit beta 1) (human (endogenous in HEK293T)) (UniProt P53618); experiment: co-IP
[2] = target: RAB5 (Ras-associated protein RAB5A) (human (endogenous in HEK293T)) (UniProt P20339); experiment: co-IP

Row | Substance | binding [1] | binding [2]
1 | RAB5 (Ras-associated protein RAB5A) (from UniProt P20339 1-215) | binds | –
2 | SARS-CoV-2 NSP6-HA (from UniProt P0DTD1 3570-3859) | binds | binds
